Assay results published in paper PMC9600610.
Results are given in words; binding and its absence hold for the method and conditions named. In cells and extracts the contact can be indirect. These calls come from enrichment with a bait or labelling near it, and not all partners need be listed.

Protein sequences, listed by entry. Tags and fused reporters are not part of them.
UniProt P02584: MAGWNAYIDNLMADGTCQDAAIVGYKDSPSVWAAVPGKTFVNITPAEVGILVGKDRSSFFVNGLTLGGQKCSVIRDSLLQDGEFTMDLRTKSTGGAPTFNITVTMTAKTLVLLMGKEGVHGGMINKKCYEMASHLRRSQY
UniProt Q2TA49: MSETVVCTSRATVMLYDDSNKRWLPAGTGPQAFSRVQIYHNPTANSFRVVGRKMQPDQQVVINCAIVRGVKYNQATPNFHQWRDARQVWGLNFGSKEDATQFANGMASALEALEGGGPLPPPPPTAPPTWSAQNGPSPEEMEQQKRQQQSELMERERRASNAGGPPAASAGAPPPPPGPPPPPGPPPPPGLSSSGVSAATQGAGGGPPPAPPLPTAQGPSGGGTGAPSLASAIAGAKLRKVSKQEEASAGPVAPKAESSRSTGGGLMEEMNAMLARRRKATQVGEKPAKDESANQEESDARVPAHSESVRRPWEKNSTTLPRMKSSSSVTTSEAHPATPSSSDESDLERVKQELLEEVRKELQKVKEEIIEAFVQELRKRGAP
UniProt Q2KJ93: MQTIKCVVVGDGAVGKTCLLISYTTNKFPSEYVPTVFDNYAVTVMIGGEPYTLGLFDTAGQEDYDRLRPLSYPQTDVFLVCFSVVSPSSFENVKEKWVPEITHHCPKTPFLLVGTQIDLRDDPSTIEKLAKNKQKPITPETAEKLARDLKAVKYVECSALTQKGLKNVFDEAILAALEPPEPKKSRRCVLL
UniProt P61585: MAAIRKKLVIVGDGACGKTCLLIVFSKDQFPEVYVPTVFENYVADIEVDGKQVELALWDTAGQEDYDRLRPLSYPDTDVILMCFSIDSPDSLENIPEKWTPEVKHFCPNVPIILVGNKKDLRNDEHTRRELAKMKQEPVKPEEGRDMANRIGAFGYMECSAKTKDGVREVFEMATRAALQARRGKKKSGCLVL
UniProt Q1RMJ6: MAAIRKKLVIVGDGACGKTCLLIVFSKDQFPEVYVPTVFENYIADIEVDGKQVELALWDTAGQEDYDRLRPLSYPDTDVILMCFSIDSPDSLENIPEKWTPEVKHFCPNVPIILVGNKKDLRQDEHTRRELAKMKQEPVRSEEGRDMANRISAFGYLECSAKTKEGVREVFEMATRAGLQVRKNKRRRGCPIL

Molecular target: Profilin1 (bovine (endogenous in bovine myoblasts)) (UniProt P02584)
Assay: affinity purification with mass spectrometry; PFN1 antibody or IgG on protein A/G magnetic beads, incubated with lysate of DM2 bovine myoblasts at 4 °C overnight; SDS-PAGE and mass spectrometry; proteins found only in the IP group deemed potential binding proteins

Row | binding | Substance
1 | binds | VASP (from UniProt Q2TA49 1-383)
2 | binds | Cdc42 (from UniProt Q2KJ93 1-191)
3 | binds | RhoA (from UniProt P61585 1-193)
4 | binds | RhoC (from UniProt Q1RMJ6 1-193)
